Experimental data as given in the supplement of paper PMC8728848.
The list shows a part of the results.

How the values were obtained:
Assay in all cases: glycan array binding signal (z-score within array); higher = stronger binding
Details in all cases: glycan notation: IUPAC condensed, linker removed
GlcNAc(b1-6)GalNAc = target: GlcNAc(b1-6)GalNAc
Outline: (§1)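 From the Consortium for Functional Glycomics database, 3228 arrays were curated, keeping only those whose protein sequence was available. Binding is given as a within-array Z-score averaged across arrays sharing a protein sequence and across linkers. Negative Z-scores can be read as non-binding.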

GlcNAc3Prop(b1-4)GlcNAc = target: GlcNAc3Prop(b1-4)GlcNAc
Outline: as §1

[1] = target: GlcNAc6S(b1-3)Gal(b1-4)GlcNAc
Outline: as §1

Kdn(a2-3)Gal(b1-3)GalNAc = target: Kdn(a2-3)Gal(b1-3)GalNAc
Outline: as §1

Kdn(a2-3)Gal(b1-3)GlcNAc = target: Kdn(a2-3)Gal(b1-3)GlcNAc
Outline: as §1

Kdn(a2-3)Gal(b1-4)Glc = target: Kdn(a2-3)Gal(b1-4)Glc
Outline: as §1

Kdn(a2-3)Gal(b1-4)GlcNAc = target: Kdn(a2-3)Gal(b1-4)GlcNAc
Outline: as §1

[2] = target: Kdn(a2-3)Gal(b1-4)[Fuc(a1-3)]GlcNAc
Outline: as §1

Kdn(a2-6)Gal(b1-4)GlcNAc = target: Kdn(a2-6)Gal(b1-4)GlcNAc
Outline: as §1

[3] = target: Man(a1-2)Man(a1-2)Man(a1-3)Man
Outline: as §1

[4] = target: Man(a1-2)Man(a1-2)Man(a1-6)[Man(a1-3)]Man
Outline: as §1

Man(a1-2)Man(a1-3)Man = target: Man(a1-2)Man(a1-3)Man
Outline: as §1

[5] = target: Man(a1-2)Man(a1-3)[Man(a1-2)Man(a1-6)]Man
Outline: as §1

[6] = target: Man(a1-2)Man(a1-3)[Man(a1-2)Man(a1-6)]Man(a1-6)[Man(a1-2)Man(a1-2)Man(a1-3)]Man
Outline: as §1

[7] = target: Man(a1-2)Man(a1-3)[Man(a1-2)Man(a1-6)]Man(a1-6)[Man(a1-2)Man(a1-2)Man(a1-3)]Man(b1-4)GlcNAc(b1-4)GlcNAc
Outline: as §1

[8] = target: Man(a1-2)Man(a1-3)[Man(a1-6)]Man(a1-6)[Man(a1-2)Man(a1-3)]Man(b1-4)GlcNAc(b1-4)GlcNAc
Outline: as §1

[9] = target: Man(a1-2)Man(a1-6)[Man(a1-3)]Man(a1-6)[Man(a1-2)Man(a1-2)Man(a1-3)]Man
Outline: as §1

[10] = target: Man(a1-2)Man(a1-6)[Man(a1-3)]Man(a1-6)[Man(a1-2)Man(a1-2)Man(a1-3)]Man(b1-4)GlcNAc(b1-4)GlcNAc
Outline: as §1

Man(a1-3)[Man(a1-6)]Man = target: Man(a1-3)[Man(a1-6)]Man
Outline: as §1

[11] = target: Man(a1-3)[Man(a1-6)]Man(a1-6)[Man(a1-2)Man(a1-3)]Man(b1-4)GlcNAc(b1-4)GlcNAc
Outline: as §1

[12] = target: Man(a1-3)[Man(a1-6)]Man(a1-6)[Man(a1-3)]Man
Outline: as §1

[13] = target: Man(a1-3)[Man(a1-6)]Man(a1-6)[Man(a1-3)]Man(b1-4)GlcNAc(b1-4)GlcNAc
Outline: as §1

[14] = target: Man(a1-3)[Man(a1-6)]Man(b1-4)GlcNAc(b1-4)GlcNAc
Outline: as §1

Man(a1-6)Man = target: Man(a1-6)Man
Outline: as §1

Man(b1-4)GlcNAc = target: Man(b1-4)GlcNAc
Outline: as §1

Neu5Ac(a2-3)Gal = target: Neu5Ac(a2-3)Gal
Outline: as §1

[15] = target: Neu5Ac(a2-3)Gal(b1-3)GalNAc
Outline: as §1

[16] = target: Neu5Ac(a2-3)Gal(b1-3)GalNAc(b1-3)Gal(a1-4)Gal(b1-4)Glc
Outline: as §1

[17] = target: Neu5Ac(a2-3)Gal(b1-3)GalNAc(b1-4)[Neu5Ac(a2-3)]Gal(b1-4)Glc
Outline: as §1

[18] = target: Neu5Ac(a2-3)Gal(b1-3)GalNAc(b1-4)[Neu5Ac(a2-8)Neu5Ac(a2-3)]Gal(b1-4)Glc
Outline: as §1

[19] = target: Neu5Ac(a2-3)Gal(b1-3)GalNAc6S
Outline: as §1

[20] = target: Neu5Ac(a2-3)Gal(b1-3)GlcNAc
Outline: as §1

[21] = target: Neu5Ac(a2-3)Gal(b1-3)GlcNAc(b1-3)Gal(b1-3)GlcNAc
Outline: as §1

[22] = target: Neu5Ac(a2-3)Gal(b1-3)GlcNAc(b1-3)Gal(b1-4)GlcNAc
Outline: as §1

[23] = target: Neu5Ac(a2-3)Gal(b1-3)GlcNAc(b1-3)GalNAc
Outline: as §1

[24] = target: Neu5Ac(a2-3)Gal(b1-3)GlcNAc6S
Outline: as §1

[25] = target: Neu5Ac(a2-3)Gal(b1-3)[Fuc(a1-4)]GlcNAc
Outline: as §1

[26] = target: Neu5Ac(a2-3)Gal(b1-3)[Fuc(a1-4)]GlcNAc(b1-3)Gal(b1-3)[Fuc(a1-4)]GlcNAc
Outline: as §1

[27] = target: Neu5Ac(a2-3)Gal(b1-3)[Fuc(a1-4)]GlcNAc(b1-3)Gal(b1-4)[Fuc(a1-3)]GlcNAc
Outline: as §1

[28] = target: Neu5Ac(a2-3)Gal(b1-3)[Neu5Ac(a2-3)Gal(b1-4)]GlcNAc
Outline: as §1

[29] = target: Neu5Ac(a2-3)Gal(b1-3)[Neu5Ac(a2-6)]GalNAc
Outline: as §1

Neu5Ac(a2-3)Gal(b1-4)Glc = target: Neu5Ac(a2-3)Gal(b1-4)Glc
Outline: as §1

[30] = target: Neu5Ac(a2-3)Gal(b1-4)GlcNAc
Outline: as §1

[31] = target: Neu5Ac(a2-3)Gal(b1-4)GlcNAc(b1-2)Man(a1-3)[GlcNAc(b1-2)Man(b1-4)GlcNAc(b1-2)Man(a1-6)]Man(b1-4)GlcNAc(b1-4)GlcNAc
Outline: as §1

[32] = target: Neu5Ac(a2-3)Gal(b1-4)GlcNAc(b1-2)Man(a1-3)[Neu5Ac(a2-6)Gal(b1-4)GlcNAc(b1-2)Man(a1-6)]Man(b1-4)GlcNAc(b1-4)GlcNAc
Outline: as §1

B1: Protectin (Homo sapiens), P13987 (protein)
chain: MGIQGGSVLFGLLLVLAVFCHSGHSLQCYNCPNPTADCKTAVNCSSDFDACLITKAGLQVYNKCWKFEHCNFNDVTTRLRENELTYYCCKKDLCNFNEQLENGGTSLSEKTVLLLVTPFLAAAWSLHP
- glycan array binding signal (z-score) (GlcNAc(b1-6)GalNAc): 1.09
- glycan array binding signal (z-score) (GlcNAc3Prop(b1-4)GlcNAc): -1.51
- glycan array binding signal (z-score) [1]: -0.098
- glycan array binding signal (z-score) (Kdn(a2-3)Gal(b1-3)GalNAc): -1.16
- glycan array binding signal (z-score) (Kdn(a2-3)Gal(b1-3)GlcNAc): -1.23
- glycan array binding signal (z-score) (Kdn(a2-3)Gal(b1-4)Glc): -0.128
- glycan array binding signal (z-score) (Kdn(a2-3)Gal(b1-4)GlcNAc): -1.49
- glycan array binding signal (z-score) [2]: -0.103
- glycan array binding signal (z-score) (Kdn(a2-6)Gal(b1-4)GlcNAc): -0.416
- glycan array binding signal (z-score) [3]: -0.54
- glycan array binding signal (z-score) [4]: -0.785
- glycan array binding signal (z-score) (Man(a1-2)Man(a1-3)Man): 0.339
- glycan array binding signal (z-score) [5]: -0.712
- glycan array binding signal (z-score) [6]: -0.071
- glycan array binding signal (z-score) [7]: -0.125
- glycan array binding signal (z-score) [8]: -0.792
- glycan array binding signal (z-score) [9]: 0.157
- glycan array binding signal (z-score) [10]: 0.029
- glycan array binding signal (z-score) (Man(a1-3)[Man(a1-6)]Man): 0.733
- glycan array binding signal (z-score) [11]: 1.21
- glycan array binding signal (z-score) [12]: -1.06
- glycan array binding signal (z-score) [13]: 0.49
- glycan array binding signal (z-score) [14]: 0.92
- glycan array binding signal (z-score) (Man(a1-6)Man): -1.23
- glycan array binding signal (z-score) (Man(b1-4)GlcNAc): -0.439
- glycan array binding signal (z-score) (Neu5Ac(a2-3)Gal): -0.121
- glycan array binding signal (z-score) [15]: -0.183
- glycan array binding signal (z-score) [16]: -0.658
- glycan array binding signal (z-score) [17]: -0.296
- glycan array binding signal (z-score) [18]: 1.93
- glycan array binding signal (z-score) [19]: -0.776
- glycan array binding signal (z-score) [20]: -0.425
- glycan array binding signal (z-score) [21]: -0.261
- glycan array binding signal (z-score) [22]: 0.09
- glycan array binding signal (z-score) [23]: -0.209
- glycan array binding signal (z-score) [24]: 0.002
- glycan array binding signal (z-score) [25]: 0.387
- glycan array binding signal (z-score) [26]: 3.13
- glycan array binding signal (z-score) [27]: -0.979
- glycan array binding signal (z-score) [28]: 0.165
- glycan array binding signal (z-score) [29]: -0.048
- glycan array binding signal (z-score) (Neu5Ac(a2-3)Gal(b1-4)Glc): -0.33
- glycan array binding signal (z-score) [30]: -0.569
- glycan array binding signal (z-score) [31]: -0.519
- glycan array binding signal (z-score) [32]: -0.215
